These are yes or no findings as the source states them, for the method shown. In cells and extracts the contact can be indirect. Some binding calls cover weakened binding; strength is not graded here.
Experiments:
[1] = target: adenylyl cyclase type 5 (mouse (endogenous in striatum)) (UniProt P84309); assay: co-IP; anti-AC5 monoclonal antibody (3 μg) and protein G beads, 1 hr at 4°C, mouse striatal lysate in 1xPBS, 150 mM NaCl, 0.5% C12E9; no receptor stimulation; immunoblot; controls: non-immune IgG, Adcy5-/- tissue
Venus155-239-Gβ2 = Venus155-239-Gβ2 (UniProt P62879); assay: split reporter; split-Venus complementation of Venus155-239-Gβ2 and Venus1-155-Gγ7 in transfected HEK293 cells; Venus fluorescence intensity; without or with co-expressed PhLP1 or ΔNT-PhLP1

The chains behind the UniProt entries cited, without tags or fusion partners.
UniProt P84309: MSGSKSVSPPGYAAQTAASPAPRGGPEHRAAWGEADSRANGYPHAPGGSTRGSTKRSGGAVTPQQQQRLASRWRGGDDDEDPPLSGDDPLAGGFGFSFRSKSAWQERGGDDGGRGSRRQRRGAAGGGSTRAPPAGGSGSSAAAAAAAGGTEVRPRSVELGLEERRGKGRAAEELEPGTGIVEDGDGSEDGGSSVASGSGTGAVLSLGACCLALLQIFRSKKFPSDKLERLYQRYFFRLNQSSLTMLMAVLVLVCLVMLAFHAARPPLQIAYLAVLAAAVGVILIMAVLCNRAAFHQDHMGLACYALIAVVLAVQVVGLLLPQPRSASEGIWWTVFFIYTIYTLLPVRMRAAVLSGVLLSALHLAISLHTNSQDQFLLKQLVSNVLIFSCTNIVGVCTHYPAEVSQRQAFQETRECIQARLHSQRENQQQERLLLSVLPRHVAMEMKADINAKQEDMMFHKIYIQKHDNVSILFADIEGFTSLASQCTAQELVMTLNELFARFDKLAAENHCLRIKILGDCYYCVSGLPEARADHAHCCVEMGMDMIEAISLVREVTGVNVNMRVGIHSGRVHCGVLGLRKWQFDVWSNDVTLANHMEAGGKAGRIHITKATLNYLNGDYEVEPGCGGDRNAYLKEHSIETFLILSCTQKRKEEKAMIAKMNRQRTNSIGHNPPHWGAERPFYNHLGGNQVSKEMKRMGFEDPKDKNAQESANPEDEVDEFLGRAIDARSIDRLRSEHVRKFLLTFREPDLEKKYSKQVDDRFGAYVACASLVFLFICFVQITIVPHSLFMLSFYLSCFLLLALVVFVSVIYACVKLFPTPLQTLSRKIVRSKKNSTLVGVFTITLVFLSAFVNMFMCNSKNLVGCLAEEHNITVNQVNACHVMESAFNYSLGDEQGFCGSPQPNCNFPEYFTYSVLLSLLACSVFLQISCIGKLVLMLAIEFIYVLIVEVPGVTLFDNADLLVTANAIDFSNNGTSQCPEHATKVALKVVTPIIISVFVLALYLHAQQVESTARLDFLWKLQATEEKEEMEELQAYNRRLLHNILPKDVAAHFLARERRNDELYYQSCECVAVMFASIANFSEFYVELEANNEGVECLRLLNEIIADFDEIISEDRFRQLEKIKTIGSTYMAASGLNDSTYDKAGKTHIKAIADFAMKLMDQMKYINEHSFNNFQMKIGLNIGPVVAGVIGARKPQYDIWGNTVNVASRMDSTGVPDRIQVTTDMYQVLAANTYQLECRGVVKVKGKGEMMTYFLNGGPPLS
UniProt P62879: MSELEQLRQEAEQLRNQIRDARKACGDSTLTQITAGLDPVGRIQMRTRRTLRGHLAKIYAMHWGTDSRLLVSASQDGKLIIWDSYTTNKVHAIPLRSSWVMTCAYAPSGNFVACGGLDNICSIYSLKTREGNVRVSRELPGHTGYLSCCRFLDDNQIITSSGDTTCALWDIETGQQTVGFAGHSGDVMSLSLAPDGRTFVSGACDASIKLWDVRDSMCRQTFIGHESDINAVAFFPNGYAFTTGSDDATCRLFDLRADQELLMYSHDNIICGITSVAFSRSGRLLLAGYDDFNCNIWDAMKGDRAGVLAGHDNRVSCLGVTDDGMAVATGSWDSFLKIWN
UniProt Q8CGK7: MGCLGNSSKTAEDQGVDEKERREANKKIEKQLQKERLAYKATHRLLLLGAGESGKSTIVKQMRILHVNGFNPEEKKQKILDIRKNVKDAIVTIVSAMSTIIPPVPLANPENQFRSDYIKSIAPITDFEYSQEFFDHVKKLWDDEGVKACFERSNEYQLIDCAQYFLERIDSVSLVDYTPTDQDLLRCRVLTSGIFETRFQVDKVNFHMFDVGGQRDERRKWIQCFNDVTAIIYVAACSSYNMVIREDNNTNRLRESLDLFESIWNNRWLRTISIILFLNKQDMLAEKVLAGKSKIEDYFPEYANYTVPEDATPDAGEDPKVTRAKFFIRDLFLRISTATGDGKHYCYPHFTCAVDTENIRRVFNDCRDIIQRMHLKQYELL
UniProt O60262: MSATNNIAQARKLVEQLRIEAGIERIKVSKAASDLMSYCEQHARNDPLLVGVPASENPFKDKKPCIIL

binding [1]	binding (Venus155-239-Gβ2)	Substance
binds	–	Gαolf (from UniProt Q8CGK7 1-381)
–	binds	Venus1-155-Gγ7 (from UniProt O60262 1-68)
